Measured values taken from PubChem BioAssay AID602313 (National Center for Advancing Translational Sciences (NCATS), 2012).
The campaign covered roughly 390,000 compounds. About 760 (0.19%) were called active. Inconclusive means that the source gave no clear call. Such entries were picked first, then a sample of the others. Calls follow the shape of the dose curve; as a rule, active = well fitted inhibition curve with a large enough effect; inconclusive = small, poorly fitted or top-dose-only effect; inactive = flat fitted curve, though single readings scatter. Where the call is inconclusive, the potency comes from a doubtful curve fit.
Potency is read from the fitted curve at half-maximal effect.

Experiment: qHTS for Inhibitors of Vif-A3F Interactions: qHTS; also: nearly all actives have a fitted effect of over 65% in size
Settings: HeLa A3F-eYFP + Vif (tagged APOBEC3F with the HIV-1 protein that degrades it), YFP fluorescence increase; series mostly up to 46.1 µM
In short: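 HeLa cells stably expressing Vif plus C-terminally eYFP-tagged A3F were seeded, incubated overnight at 37 deg C, dosed with compound, incubated overnight again at 37 deg C. Yellow fluorescence (Ex 488/Em 500-530) reported blocked Vif-mediated A3F-eYFP degradation.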
With COc1ccc(C)cc1S(=O)(=O)N1CCC(C(=O)NC2CCCC2)CC1 the Potency was inconclusive: 20 µM [inhibitor, single point]. With C=CCNc1nc(C2(C)CC3(CC(C)(C)OC3=O)C(=O)O2)cs1 (stereo unspecified) the Potency was inconclusive: 1.78 µM [inhibitor, partial curve, poor fit]. With CC(=O)Nc1ccc(NC(=O)C/C(C)=N/NC(N)=S)cc1 the Potency was active: 7.94 µM. In the case of C#CC(C)(CC)NC(=O)c1cc2cccc(CC=C)c2oc1=O (stereo unspecified), the Potency is reported as inconclusive: 20 µM [inhibitor, single point]. For CC(=O)c1cnc(SCc2ccc(Cl)cc2)nc1C, the Potency was inconclusive: 6.31 µM [inhibitor, single point]. In the case of CCOC(=O)c1ccc(-c2cccc(-c3cc(=O)oc4cc(OC)cc(OC)c34)c2)cc1, the Potency is reported as “inactive”. With COc1ccc(CCNC(=O)COC(=O)C2CC2C)cc1 (stereo unspecified) the Potency was inconclusive: 6.31 µM [inhibitor, single point]. With Cc1cc(C)n(-c2cc(C(C)(C)C)nc3c(-c4ccc(Cl)cc4)cnn23)n1 the Potency was inconclusive: 11.2 µM [inhibitor, partial curve, poor fit]. With Oc1ccc(Nc2ncnc3scc(-c4ccccc4)c23)cc1 the Potency was “inactive”. For Cc1ccc2nc(N3C(=O)CNC3=S)sc2c1, the Potency was inconclusive: 6.31 µM [inhibitor, partial curve, poor fit]. With COc1ccc(/C=C2\SC(=O)N(CC(=O)NC3C=CS(=O)(=O)C3)C2=O)cc1 (stereo unspecified) the Potency was “inactive”. For COc1ccc(CCNC(=O)c2ccc3c(c2)OCO3)cc1, the Potency was inconclusive: 6.31 µM [inhibitor, single point]. With CC(C)C[C@H](NC(=O)c1[nH]cnc1C(=O)N[C@@H](Cc1ccccc1)C(=O)OC(C)(C)C)C(=O)OCc1ccccc1 the Potency was inconclusive: 10 µM [inhibitor, partial curve, poor fit]. With COC(=O)[C@H](Cc1ccccc1)NC(=O)NCCc1ccc(OC)cc1 the Potency was inconclusive: 6.31 µM [inhibitor, single point]. For CC(CC(=O)Nc1cccc(Cl)c1)c1ccccc1 (stereo unspecified), the Potency was “inactive”. For C/C(=N\N(c1ccccc1)c1ccccc1)c1ccc(O)cc1, the Potency was “inactive”. For COc1ccc(-n2c(C)cc(/C=C3\SC(=S)N(Cc4ccco4)C3=O)c2C)cc1, the Potency was inconclusive: 31.6 µM [inhibitor, single point]. For COc1ccc(S(=O)(=O)N2CCCC(C(=O)NCC3CCCO3)C2)cc1OC (stereo unspecified), the Potency was inconclusive: 35.5 µM [inhibitor, single point]. In the case of CCOc1ccc(OCC)c(NC(=O)CC(C)n2nc(C)cc2C)c1 (stereo unspecified), the Potency is reported as “inactive”. In the case of CS(=O)(=O)Nc1ccc(C(=O)N2CCc3ccccc3C2)cc1, the Potency is reported as inconclusive: 10 µM [inhibitor, single point]. With O=C1C=C(O)c2cccc(O)c2C1=O the Potency was “inactive”. With COc1ccc(O)c(C(=O)c2cc(C#N)c(=O)n(-c3ccc(Cl)cc3)c2)c1 the Potency was inconclusive: 35.5 µM [inhibitor, single point]. For Nc1nonc1-c1nc2ccccc2n1Cc1cccc(Cl)c1, the Potency was “inactive”. With Cc1ccc(CN(C(=O)c2ccccc2F)c2ccccn2)o1 the Potency was inconclusive: 12.6 µM [inhibitor, partial curve]. In the case of CC(C)c1ccc(NC(=O)c2ccc(F)c(S(=O)(=O)N3CCc4ccccc4C3)c2)cc1, the Potency is reported as “inactive”. For C/C(CC(=O)Nc1cc(C)ccn1)=N\NC(=O)c1ccc(C)cc1, the Potency was “inactive”. For CC1=C(C(=O)N2CCOCC2)CC(CC(=O)NC(c2ccccc2)c2ccccc2)C(=O)N1CCCN1CCCC1=O (stereo unspecified), the Potency was inconclusive: 35.5 µM [inhibitor, single point]. For C=Cc1ccc(Cn2c(C)c(CNCCc3ccccc3C)c(C(=O)O)c2C)cc1, the Potency was “inactive”. For CC(Oc1ccc(Cl)cc1Cl)C(=O)NCCCCc1ccccc1 (stereo unspecified), the Potency was “inactive”. In the case of CN1/C(=C\C(=O)Nc2ccc(Cl)cc2)C(C)(C)c2ccccc21, the Potency is reported as inconclusive: 35.5 µM [inhibitor, single point]. With COc1ccc(CN(C(=O)Nc2cccc(Cl)c2)c2ccccn2)cc1OC the Potency was “inactive”. For O=C(NCCc1ccc(Cl)cc1)C1CCN(S(=O)(=O)c2ccc(Br)s2)CC1, the Potency was inconclusive: 3.98 µM [inhibitor, single point]. With CCCCOc1ccc(C(C)NC(=O)c2cccc(Nc3nc4ccccc4n4nnnc34)c2)cc1 (stereo unspecified) the Potency was inconclusive: 11.2 µM [inhibitor, partial curve, poor fit]. For COc1cccc(OC)c1NC(=O)CN(C)S(=O)(=O)c1ccc2c(c1)OCCO2, the Potency was inconclusive: 35.5 µM [inhibitor, single point]. With Cc1nc2c(-c3ccccc3)c(C)[nH]n2c(=O)c1Cc1ccccc1 the Potency was “inactive”. In the case of CCC(=Nc1ccc(Cc2ccncc2)cc1)c1c(O)n(C)c(=O)n(C)c1=O, the Potency is reported as “inactive”. With CCCSc1nnc(Sc2nnnn2-c2ccccc2)s1 the Potency was “inactive”. In the case of Fc1cccc(C2CCCCN2Cc2nc(C3CC3)no2)c1 (stereo unspecified), the Potency is reported as inconclusive: 6.31 µM [inhibitor, single point]. For COc1ccc(C(=O)NC(=S)Nc2ccc(S(=O)(=O)Nc3cc(OC)nc(OC)n3)cc2)cc1, the Potency was “inactive”. For COC(=O)N/N=C/c1ccccc1Cl, the Potency was inconclusive: 2.51 µM [inhibitor, single point]. For Cc1cc(C)c(NS(=O)(=O)c2ccc(-c3cnc(C4CC4)o3)cc2)c(C)c1, the Potency was “inactive”. For CC(C)c1ccc(NC(=O)CN2C(=O)c3ccccc3S2(=O)=O)cc1, the Potency was inconclusive: 35.5 µM [inhibitor, single point]. With Cc1cc(C)c(OCC(=O)NCC(C)(C)N2CCOCC2)c(C)c1 the Potency was inconclusive: 6.31 µM [inhibitor, single point]. In the case of COc1cccc(-c2ccc3c(N)c(C(=O)c4ccc(Br)cc4)sc3n2)c1, the Potency is reported as active: 7.94 µM. In the case of O=C(Cn1cc([N+](=O)[O-])ccc1=O)N1CCc2ccccc21, the Potency is reported as inconclusive: 1.78 µM [inhibitor, partial curve, poor fit]. For CC1CCCCC12NC(=O)N(CC(=O)Nc1nccs1)C2=O (stereo unspecified), the Potency was inconclusive: 3.55 µM [inhibitor, partial curve, poor fit]. For O=C(NCCc1c[nH]c2ccccc12)/C(=C\c1cccnc1)NC(=O)c1ccccc1F, the Potency was inconclusive: 3.16 µM [inhibitor, single point]. In the case of COC1(OC)C=CC(=O)C=C1NC(=O)c1ccccc1OC(C)=O, the Potency is reported as “inactive”. For CCN(CC)C(=S)NC(=O)c1cc(OC)c(OC)c(OC)c1, the Potency was inconclusive: 25.1 µM [inhibitor, single point]. With COc1ccc(C(=O)C=CNNC(=O)c2ccc(Cl)cc2)cc1 the Potency was inconclusive: 11.2 µM [inhibitor, partial curve, poor fit]. For O=[N+]([O-])c1ccc2nc(-c3ccccc3[N+](=O)[O-])[nH]c2c1, the Potency was “inactive”. In the case of O=C(OCC(=O)N1CCN(C(=O)c2ccco2)CC1)c1cn(-c2ccccc2)nc1-c1ccccc1, the Potency is reported as “inactive”. In the case of FC(F)(F)c1cc(C(F)(F)F)c2ccc(N/N=C/c3ccccc3)nc2n1, the Potency is reported as inconclusive: 20 µM [inhibitor, single point]. In the case of COc1cc2ccccc2cc1C(=O)Nc1ccc(O)cc1, the Potency is reported as inconclusive: 35.5 µM [inhibitor, single point]. In the case of CO/N=C/CC(=O)c1cnc(-c2ccc(Cl)cc2)s1, the Potency is reported as inconclusive: 15.8 µM [inhibitor, single point]. With Cc1ccc(NC(=S)NC(=O)C2CCCCC2)c(Br)c1 the Potency was inconclusive: 25.1 µM [inhibitor, single point]. In the case of COc1ccc(-c2noc(CSc3nnc(Cc4ccccc4)n3-c3cccc(C)c3)n2)cc1OC, the Potency is reported as “inactive”. For Cc1ccc(-c2nn(-c3ccccc3)cc2/C=C2\SC(=S)N(CC(=O)O)C2=O)cc1, the Potency was “inactive”. For Cc1oc2ccc(O)c(CN(C)Cc3ccccc3)c2c1C(=O)Nc1cccc(Cl)c1C, the Potency was “inactive”. With CCOc1ccc(S(=O)(=O)NCc2cccs2)cc1C(C)C the Potency was inconclusive: 35.5 µM [inhibitor, single point]. In the case of CCOC(=O)N1CCN(CC(=O)Nc2nc3ccc(OC)cc3s2)CC1, the Potency is reported as inconclusive: 6.31 µM [inhibitor, single point]. For Cc1ccccc1OCc1nc(-c2ccc(NC(=O)c3ccco3)cc2)no1, the Potency was “inactive”. In the case of CCOC(=O)CSc1c(-c2ccc(Cl)cc2)[nH]c2ccccc12, the Potency is reported as inconclusive: 35.5 µM [inhibitor, single point]. In the case of Cc1ccc(C(=O)CCC(=O)OCC(=O)Nc2ccccc2SCC#N)cc1, the Potency is reported as active: 12.6 µM. With CCOC(=O)C1(Cc2ccccc2)CCCN(C(=O)c2ccc(-n3ccnc3)cc2)C1 (stereo unspecified) the Potency was inconclusive: 5.62 µM [inhibitor, single point]. In the case of COc1cc(OC)cc(C(=O)c2c(C)c(C#N)c3ccccn23)c1, the Potency is reported as “inactive”. With Oc1c(CN2CCc3ccccc3C2)cc(Cl)c2cccnc12 the Potency was inconclusive: 0.562 µM [inhibitor, full curve, poor fit]. For Cn1c(SCC(=O)NCCc2ccccc2)ncc(C(=O)Nc2ccccc2)c1=O, the Potency was inconclusive: 11.2 µM [inhibitor, partial curve, poor fit]. With COc1ccc(-c2[nH]n(-c3ccc([N+](=O)[O-])cc3)c(=O)c2C=NCc2ccccc2)cc1 the Potency was inconclusive: 15.8 µM [inhibitor, partial curve, poor fit]. In the case of CCOc1cccc(N(C(=O)Cc2cccs2)C(C(=O)NC2CCCCC2)c2cccn2C)c1 (stereo unspecified), the Potency is reported as “inactive”. For COc1ccc(C(=O)OCC(=O)c2c[nH]c3ccccc23)cc1OC, the Potency was inconclusive: 31.6 µM [inhibitor, single point].
